Out of some 330,000 compounds screened, about 7,700 (2.3%) were called active. This list was built around the results that the source calls inconclusive (neither active nor inactive); the mix of calls is not that of the screen. Calls follow the shape of the dose curve; as a rule, active = well fitted inhibition curve with a large enough effect; inconclusive = small, poorly fitted or top-dose-only effect, or effect the other way; inactive = flat fitted curve, though single readings scatter. Potencies of inconclusive entries are doubtful fits and often do not repeat.
Assay: qHTS screen for small molecules that inhibit ELG1-dependent DNA repair in human embryonic kidney (HEK293T) cells expressing luciferase-tagged ELG1; also: nearly all actives have a fitted effect of over 55% in size
Conditions: HEK293T ELG1-luciferase reporter, luminescence, 16 h, DNA damage induced by 5-fluorouridine; series mostly up to 46.1 µM
Summary of the method: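 HEK293T cells expressing luciferase-tagged ELG1 (2,000/well) received 5-Fluorouridine plus compound or DMSO for 16 hr at 37 °C. Luciferase was read by ONE-Glo luminescence after 30 min at room temperature.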
Potency is read from the fitted curve at half-maximal effect.

Structure (SMILES) | Potency
Cc1cc(C)nc(SCC(=O)Nc2ccccc2[N+](=O)[O-])n1 | inactive
CCCOc1ccc(NC(=O)C2CC(=O)N(C)C(=Nc3cccc(OC)c3)S2)cc1 (centres undefined) | inconclusive: 29.1 µM [inhibitor, single point]
COc1cc(-c2nnc(SC/C=C/c3ccccc3)n2N)cc(OC)c1OC | inconclusive: 11.6 µM [inhibitor, partial curve]
COc1ccc2c(c1)SC(C)CC2=O (centres undefined) | inconclusive: 18.4 µM [activator, partial curve, poor fit]
CCOC(=O)[C@H]1[C@H]2COc3cc(OC)ccc3[C@@H]2N2C(=O)c3cc(OC)c(OC)cc3NC(=O)[C@@]12C | inactive
C[C@]12CC(O)C3C(CCC4=CC(=O)CC[C@@]43C)C1CCC2c1csc(-c2ccccc2)n1 (some centres undefined) | inconclusive: 5.17 µM [inhibitor, partial curve]
COc1ccc2c(c1)CC/C(=C/c1ccccn1)C2=O | inconclusive: 23.1 µM [activator, partial curve]
C=CCn1c(Oc2cc(C)ccc2C)nc2c1c(=O)n(C)c(=O)n2C | inconclusive: 23.1 µM [inhibitor, partial curve, poor fit]
O=C(Nc1ccccc1O)/C(=C\c1ccccc1)NC(=O)c1ccccc1 | inactive
Cc1ccc(Oc2ncccc2NC(=O)CC2(CC(=O)O)CCCC2)c2c1CCC2 | inactive
COc1ccc(NC(=O)COC(=O)c2cccn2C)cc1S(=O)(=O)N1CCCCC1 | inconclusive: 20.6 µM [inhibitor, partial curve, poor fit]
COc1ccc(/C=C/C(=O)N(C)C2(C)CCS(=O)(=O)C2)cc1 (centres undefined) | inactive
COc1ccc(/C=N/Nc2nnc(-c3ncc[nH]3)c3ccccc23)cc1 | inconclusive: 3.26 µM [activator, full curve]
COc1cccc2cc(-c3cc(=O)oc4ccc(OCC(C)=O)cc34)oc12 | active: 2.59 µM
Cc1cc(C)nc(NC2=NCCN2C(=O)NC2CCCCC2)n1 | inactive
CCOc1ccc(N(CC(=O)Nc2ccccc2)S(C)(=O)=O)cc1 | inconclusive: 14.6 µM [activator, single point]
CCCCOc1ccc(C(=O)NCc2ccccn2)cc1 | inconclusive: 29.1 µM [activator, single point]
O=C(NCC1CCCC(CNC(=O)N2CCc3ccccc32)C1)N1CCc2ccccc21 (centres undefined) | inconclusive: 20.6 µM [inhibitor, single point]
Cc1oc(S(=O)(=O)N(C)C)cc1C(=O)Nc1ccc(F)cc1 | inactive
O=C(CN1C(=O)S/C(=C/c2cccs2)C1=O)N1CCCC1 | inconclusive: 16.4 µM [activator, single point]
COc1cccc(NC(=O)CNC(=O)c2ccc(F)cc2)c1 | inconclusive: 25.9 µM [activator, single point]
O=C(NC1CCCCC1)C(c1ccc2ncccc2c1)N(Cc1cccs1)C(=O)c1cccs1 (centres undefined) | active: 16.4 µM

Structure (SMILES) | Potency
OC[C@@H]1[C@@H](c2ccc(Cl)cc2)C(c2cccc(Cl)c2)=NN1c1ccccc1 | inactive
CC(C)CNS(=O)(=O)c1ccc(CC(C)C)cc1 | inconclusive: 29.1 µM [inhibitor, single point]
O=C(OC1CCc2ccccc2C1=O)c1ccccc1O (centres undefined) | inactive
O=C1N[C@H](Cc2ccccc2)COC(=O)[C@H](Cc2ccc(F)cc2)CC/C=C/C[C@@H]1CC(=O)N(CCO)Cc1ccccc1 | active: 20.6 µM
COc1ccc(/C=N/Nc2nnc(-c3ccccc3)c(=O)[nH]2)cc1 | inconclusive: 29.1 µM [activator, single point]
COc1ccccc1N1CCN(C(=O)c2c(-c3ccccc3Cl)noc2C)CC1 | inconclusive: 22.4 µM [inhibitor, single point]
O=C(CSc1nc(Nc2ccccc2)nc(N2CCOCC2)n1)Nc1ccc2c(c1)OCCO2 | inconclusive: 20.6 µM [inhibitor, partial curve]
CCCn1c(-c2cc(OC)c(OC)c(OC)c2)nc2c1c(=O)[nH]c(=O)n2Cc1ccccc1 | inconclusive: 5.8 µM [inhibitor, full curve]
Cc1ccc(S(=O)(=O)N[C@H](C(=O)N2CCC(C(=O)N[C@@H](CCC(N)=O)C(=O)O)CC2)C(C)C)cc1 | inactive
Cc1cc(C)nc(N/N=C/c2cccc3ccccc23)n1 | inconclusive: 13 µM [activator, partial curve]
COc1cc(/C=C/c2noc(-c3ccccc3O)n2)ccc1OC(C)=O | inconclusive: 10.3 µM [activator, partial curve]
O=C(C1Cc2ccccc2CN1S(=O)(=O)c1ccc(F)cc1)N1CCOCC1 (centres undefined) | inconclusive: 29.1 µM [activator, partial curve, poor fit]
Cc1ccc(/C=N/Nc2ccc(Cl)c(C(=O)O)c2)s1 | inconclusive: 0.517 µM [activator, full curve]
COc1ccccc1NS(=O)(=O)c1cccc(NC(=O)NC2CCCCC2)c1 | inconclusive: 29.1 µM [inhibitor, partial curve, poor fit]
CC1CCN(C(=S)Nc2ccc(SC(F)F)cc2)CC1 | inconclusive: 4.11 µM [activator, full curve]
COc1ccc2nc(SCC(=O)N3CCN(c4ccc(F)cc4)CC3)c(C#N)cc2c1 | inconclusive: 32.6 µM [inhibitor, single point]
N#Cc1nc(COc2ccccc2F)oc1N1CCCCCC1 | inconclusive: 25.9 µM [activator, single point]
Cc1ccc(CN(c2ccc(C(=O)NCc3cccnc3)cc2)S(C)(=O)=O)cc1 | inconclusive: 20.6 µM [inhibitor, single point]
Cc1cc(C(=O)NCc2ccco2)no1 | inactive
O=S(=O)(c1ccc(OC(F)(F)F)cc1)N1CCC(O)(c2cccc(C(F)(F)F)c2)CC1 | inactive
CCCN(CCC)C(=O)/C=C/c1cccc([N+](=O)[O-])c1 | inactive
CCOC(=O)C1=C(CC)Nc2ccccc2N=C1NC(=O)c1ccc(C)c(S(=O)(=O)N2CCOCC2)c1 | inconclusive: 10.3 µM [inhibitor, partial curve, poor fit]

Taken from above:
Potency with `OC[C@@H]1[C@@H](c2ccc(Cl)cc2)C(c2cccc(Cl)c2)=NN1c1ccccc1` reads inactive
Potency with `CC1CCN(C(=S)Nc2ccc(SC(F)F)cc2)CC1` reads inconclusive: 4.11 µM [activator, full curve]
Potency with `CCCn1c(-c2cc(OC)c(OC)c(OC)c2)nc2c1c(=O)[nH]c(=O)n2Cc1ccccc1` reads inconclusive: 5.8 µM [inhibitor, full curve]
Potency with `O=S(=O)(c1ccc(OC(F)(F)F)cc1)N1CCC(O)(c2cccc(C(F)(F)F)c2)CC1` reads inactive
